Experimental findings from PubChem BioAssay AID1508600 (Functional Genomics Laboratory (NCATS/FGL), 2020) are described below.

The whole screen tested about 53,000 sequences, of which about 3,700 (7%) were called active.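 How the source made its calls: active means gene knockdowns whose robust z-score for IL-1 alpha signal is at least 2 or at most -2, so actives lie on both sides; inactive means the rest.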 Some of the results follow.

The assay can be described thus: Components of the Cytosolic LPS Sensing Pathway: Gene Identification via Genome-wide siRNA Screen.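 Further: robust z of the log signal after scaling to non-targeting control siRNA wells of the plate.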 As to conditions: RAW264.7 macrophages, IL-1a HTRF, actives lie on both sides, screened at 100 nM (by protocol), cells primed 5 h with Pam3CSK4 first. In outline:
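RAW264.7 mouse macrophages reverse-transfected with single siRNAs (100 nM final) for 48h, primed with Pam3CSK4 for 5 hours, then transfected with LipidA for 24 hour. Supernatant IL-1a read by HTRF; values normalized to negative-control median, log-transformed robust z-scores.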
On the technique in general: In TR-FRET formats the signal depends on donor and acceptor labels being close together.
CCUUCAUCAUUACUCUUCUTT against Olfr780: the z-score was inactive: 0.251.

Turning to GCCAGACUUUGUUUUUGCUTT against Pramel37, the z-score is inactive: -0.587.

For the sequence CGGUUUGCCAAAGUACACATT against Exosc1, the z-score was inactive: -0.0103.

In the case of GGAUGAGCAUAAAAGUCCUTT against Atf7ip, the z-score is inactive: -0.536.

Take GCCAGGAGUACUGUAUAUATT against Spint1: the z-score is inactive: -0.366.

As to GGAUGUGAUAACUUUUCUATT against Csf2rb2, the z-score was inactive: -0.696.

Turning to GUUUGAGACGGAGCAGAGCTT against Krt14, the z-score was inactive: 0.919.

Take CGUAGAAGAGUACAUGAUUTT against Pdcd10: the z-score was inactive: -0.526.

With GGAAAUGCGACGAGUAUAUTT against Slc38a1, the z-score was inactive: 0.509.

Consider GGAGGACGUAACUAAAUCATT against Napepld, for which the z-score was inactive: -0.934.

Consider GGACAAAUCAGUUCUGCGUTT against Car13, for which the z-score was inactive: 0.105.

Regarding GCUGGACUUCUGUGCUUCUTT against Olfr787, the z-score was inactive: 0.223.

As to GGAGGAACAGCAGAGAAGUTT against Crocc, the z-score was inactive: -1.15.

Regarding CGUGAUGGGACUUGAGAAGTT against Teddm1a, the z-score was inactive: -0.454.

Consider GGCAGUGACCCUAGUUUAUTT against Lhx1, for which the z-score was inactive: 0.545.

As to GCAGGUAUGAUGAAGGUUCTT against Recql5, the z-score is inactive: -0.232.

For “GCUACAGUACCCAUACUAGTT against 8030451A03Rik”, the z-score was inactive: 1.15.

CGGCGGCAACAAUAACAAGTT against C1ql2: the z-score is inactive: 0.42.

As for GGCCAAGCUGAAGAAAAUGTT against Ripor2, the z-score is inactive: -1.72.

As for GGGACCUUGAUCAAAACCUTT against Gp5, the z-score is inactive: -0.215.

As to GCUGUACCACAACUAGUCATT against Cdc7, the z-score was inactive: 0.977.

“GGCUGUUCUCUAGAUGAAUTT against 1810065E05Rik”: the z-score is inactive: -1.54.

Take GGAUUUCGAGAAAAUCAACTT against Kctd4: the z-score was inactive: -0.225.

With GCUGUGUAUGUAUUUCAUGTT against Rnf128, the z-score was inactive: 0.549.

As to GGAAUCAGAGUUUAAGUACTT against Uqcrq, the z-score is inactive: -0.133.

On to GGGCAAGAACUACAUCUGCTT against Wdr18, for which the z-score was inactive: -0.288.

As for GGGAGACAGUUCUGCUGAATT against Rpl13, the z-score is inactive: 0.602.

As to GGAUGAAAGUCCAACCACATT against Tulp2, the z-score was inactive: -0.17.

Turning to CCAGAACAUGUCCCUUCAATT against Rnase1, the z-score is inactive: -0.242.

GGGACAACUUAGGUGCUGGTT against Slc12a9: the z-score is inactive: -0.992.

For GGUAAAAAACCAAGAACAATT against Ednrb, the z-score was active: 2.17.

For the sequence GGUAGAUUAUAGCAAAAUGTT against Ik, the z-score is active: -2.23.

As for GCUGGAGUUAAUGGUCACATT against Olfr1306, the z-score was inactive: 0.699.

For the sequence GCGGCCACGGGACGGCGGUTT against Hmx2, the z-score was inactive: -0.455.

Consider GAGAGAUUGAGCUUGAAAGTT against Timm10b, for which the z-score is inactive: 0.0487.

Consider GGGUGAUGAAGAUGGCACUTT against Olfr66, for which the z-score was inactive: -0.3.

GCAGUAUGAGAUCUCCUUCTT against Galnt10: the z-score is inactive: 1.11.

As for GGUCUUCUCCAAGAUCUUCTT against Cyp26b1, the z-score was inactive: 1.03.

For CCAGCACGCAUUUAAAUAATT against Olfr628, the z-score is inactive: -0.876.

As for AACAAUGAGAUCGACUUUATT against Olfr1500, the z-score is inactive: 0.452.

With GGGAGGUGUCUUUACGUCUTT against Neto1, the z-score is inactive: -0.773.

On to CGAUAGUAAAAGAAAGCUATT against Acss3, for which the z-score is inactive: -0.493.

For the sequence GCUCUAUGGAUCCUUGGAGTT against Zfp574, the z-score was inactive: 0.772.

As for GCGGAGAUACUGGAGUUCGTT against Hes7, the z-score is inactive: -1.33.

With GGAAUCCCAGUGCUUGAAGTT against Efna1, the z-score was inactive: 0.815.

For the sequence CGAGGCAAGCGAUGUCGAUTT against Zc3h10, the z-score is inactive: 0.854.

As to GGGAAAAUAUCAAGUGUAGTT against Tmem60, the z-score was inactive: 0.567.

In the case of CUGUGGUGCCAUUCUUACUTT against Olfr384, the z-score is inactive: 0.155.

As for GGAACCUAGAAGUUUUCUATT against Pebp4, the z-score is inactive: 1.43.

In the case of CCAAGUUUUCAAAACAAACTT against Aqp3, the z-score is inactive: -0.0587.

Consider CCUAGACCAACCUAAAUUCTT against Tor4a, for which the z-score was inactive: -1.36.

In the case of CCACAGGAUUUGUCUCCUCTT against Olfr328, the z-score is inactive: -0.559.

In the case of GUAAUUCACAGUGGUCUGGTT against Mrps12, the z-score is inactive: 0.748.

Turning to GGAAUGAUUGUCUUGAUUCTT against Olfr952, the z-score is inactive: -1.9.

For the sequence CCAUUUCUAUUAACCACAATT against Jmjd4, the z-score was inactive: -0.46.

As to GGACAGCUGGCUUCUAAAUTT against Lmntd1, the z-score is inactive: 0.137.

Turning to GGAAAAAAUACCAGAAACATT against Klre1, the z-score is active: -2.68.

Take GGGUCGUUGUCCCUUUGACTT against Sema4b: the z-score is inactive: 1.29.

Take CCAAUAACCCAGGAGUGCUTT against Cst7: the z-score is inactive: -0.517.

GCCUAUUCCUACUUAUAACTT against G2e3: the z-score is inactive: -0.739.

Turning to GGACUAUAUUCAGCAGCUUTT against Mrpl22, the z-score is inactive: 0.431.

As to CCUGAUGCUUAGCAUAACGTT against Taar2, the z-score was inactive: -1.79.

As for GCUAUGUCUCAACUGUUCATT against Tbpl2, the z-score was inactive: -0.173.

In the case of GGACAAAGAAGUGGAACCCTT against Cfd, the z-score was inactive: -1.14.

For “GGACCUUGAGAUAUCUUUUTT against D130020L05Rik”, the z-score is inactive: -0.361.

GGUAGACCUAAAUAAUAUGTT against Cyp2d12: the z-score was inactive: 0.149.

Consider GCUAUCCAGAUUGGUGUUATT against Tatdn1, for which the z-score was inactive: 1.7.

In the case of GGACAAUAGGAGCCUUUAATT against Vmn1r211, the z-score is inactive: 0.125.
